Here are results for 15 compounds from PubChem BioAssay AID463181 (University of Pittsburgh Molecular Library Screening Center, 2010).

Some of the results follow. These are further read-outs of the screen, such as a control signal, another cell line or another target. No call is given for them.

The nature of this assay: L929 protection from caspase-blocker death, IC50 – L929 cells, duplicate IC50, dose response (AID 463181). To be noted: L929 zVAD necroptosis rescue, ATP luminescence, 24 h; inhibition of cell death; at 50 µM; stronger effect = higher value.
Broadly, the inhibition is the relative decrease from the control value, in per cent. Turning to `COc1cc(/C=N/Nc2nc3ccccc3s2)ccc1O`, the inhibition is 49.3%.

`CCn1c(SCc2ccc(C(=O)Nc3nccs3)cc2)nnc1-c1ccc(N)cc1`: the inhibition came out at 45.9%.

Turning to `Cc1ccc(C(=O)Nc2cccc(C(F)(F)F)c2)cc1Nc1ncnc2nc[nH]c12`, the inhibition is 27.4%.

In turn, `COc1cc(/C=N/Nc2ccc(C(F)(F)F)cn2)cc(OC)c1O` yielded an inhibition of 44.2%.

`Oc1ccc(-c2csc(Nc3ncccn3)n2)cc1`: the inhibition turned out to be 45.7%.

`O=C(CSc1nnnn1-c1ccc(O)cc1)Nc1ccc(N2CCOCC2)c(Cl)c1` had an inhibition of 40%.

Compound `CCCN1C(=O)/C(=C/c2ccc3c(c2)OCO3)NC1=S` registered an inhibition of 37.4%.

Regarding `CN(c1ccc(C(=O)Nc2nccs2)cc1)S(=O)(=O)c1ccccc1`, the inhibition worked out at 41.7%.

The compound `O=C(Nc1nccs1)c1ccc(S(=O)(=O)N2CCCCC2)cc1` returned an inhibition of 31.6%.

For `O=c1[nH]c2ccccc2nc1/C=C/c1ccc(O)cc1`, the inhibition turned out to be 40.5%.

For the compound `CCCN1C(=O)/C(=C/c2ccc(C)s2)NC1=S`, the inhibition was 40.4%.

In turn, `O=C(Nc1ccc(F)cc1)Nc1ccc(N2CCCC2)c(S(=O)(=O)Nc2ccccc2Cl)c1` registered an inhibition of 31.9%.

For the compound `CCN1CCN(Cc2ccc(NC(=O)c3cc(NC(=O)c4ccno4)cc(OC)c3)cc2C(F)(F)F)CC1`, the inhibition was 53.7%.

For the compound `COc1ccc(N=Cc2c(O)[nH]c3ccccc23)cc1`, the inhibition is 52.9%.

For the compound `Cc1ccc2c(c1)N(C(=O)NC1CCCCC1)C(C)(C)CC2C` (stereo not given), the inhibition turned out to be 32.8%.
